Read-outs that look alike come from different tables or passages of the source. Some entries share one result that the patent states for a list of compounds. Some compounds share one range, which may span the group rather than tell each member.
Test system: Murine B16(F10) melanoma cells
Experiment: IC50 determinations: net increase in 48 hour melanoma cell count
Format: cell-based
Procedure: Cultures, seeded with 1-1.5×10^5 cells, were incubated for 24 hours at 37° C. in a humidified atmosphere of 5% CO2. Isoprenoids, dissolved in absolute ethanol, were added at 24 hours (0 time); all cultures contained 5 mL ethanol/L ([…]). The cultures were incubated for an additional 48 hours. The media was removed and the monolayers were washed twice with Hanks' Balanced Salt Solution (Sigma) and then incubated with a trypsin-EDTA solution (Sigma) at 37° C. for 2 minutes. Trypsin was inactivated by suspending the cells in medium containing 10% fetal bovine serum (Sigma). The cells were pelleted at 250×g and resuspended in Hanks' Balanced Salt Solution. Viable cells, cells that excluded 0.4% trypan blue (GIPCOBRL), were counted with a hemocytometer; 24 hour cell counts were deducted from final cell counts to provide an estimate of the net increase in cell number.
FIG. 1 is a representative evaluation of the dose-dependent impact of five different tocols on the proliferation of melanoma B16 cells. Cultures (3 mL) seeded with 1-1.5×10^5 cells were incubated for 24 hours prior to the introduction of the tocols. Viable cells were counted at 48 hours following the addition of the tocols. The cell count at 24 hours (0 time) is shown by the dashed line. […]

In the case of `C=C(C)C1CC=C(C=O)CC1` (centres unmarked) [Perillaldehyde, [R]-4-isopropenyl-1-carboxaldehyde cyclohexene], the IC50 (read-out: IC50: concentration required to suppress the increase in the population of melanoma cells by 50% during a 48 hour incubation, means ± SD, listed as perillaldehyde) is reported as 120 to 150 µM.

Molecule `Cc1ccc(C(C)C)cc1O` [Carvacrol, 5-isopropyl-2-methylphenol, reference compound] has an IC50 (read-out: IC50: concentration required to suppress the increase in the population of melanoma cells by 50% during a 48 hour incubation, means ± SD, listed as carvacrol) of 120 to 150 µM.

— US6441029B1, “Method of suppressing tumor growth with combinations of isoprenoids and statins” (Wisconsin Alumni Research Foundation, priority 1997, dated 2002)
